From publication PMC10312969
These are yes or no findings as the source states them, for the method shown. In cells and extracts the contact can be indirect. Here binding means that the protein was enriched with, or labelled near, the bait; the list need not be complete.

Chains of the proteins cited; added tags and fusions are not shown.
UniProt Q76MZ3: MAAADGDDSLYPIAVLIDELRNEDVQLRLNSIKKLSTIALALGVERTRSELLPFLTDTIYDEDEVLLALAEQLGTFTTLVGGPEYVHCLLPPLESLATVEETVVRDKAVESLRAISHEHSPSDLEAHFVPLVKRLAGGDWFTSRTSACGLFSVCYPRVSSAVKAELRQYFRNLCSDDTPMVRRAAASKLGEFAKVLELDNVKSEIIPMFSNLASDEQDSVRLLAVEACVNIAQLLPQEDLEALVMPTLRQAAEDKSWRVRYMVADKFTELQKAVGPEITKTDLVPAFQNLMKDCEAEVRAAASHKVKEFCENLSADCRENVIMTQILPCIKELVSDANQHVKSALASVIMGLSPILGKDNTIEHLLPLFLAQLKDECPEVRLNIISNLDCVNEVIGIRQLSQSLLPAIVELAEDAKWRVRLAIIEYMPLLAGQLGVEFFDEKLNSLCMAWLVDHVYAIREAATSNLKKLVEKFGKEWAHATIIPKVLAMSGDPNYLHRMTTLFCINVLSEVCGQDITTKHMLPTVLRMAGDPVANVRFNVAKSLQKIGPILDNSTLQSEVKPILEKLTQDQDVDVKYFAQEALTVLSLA

Target: T1, RalA^G23V constitutively active mutant ectopically expressed in liver (UniProt P11233)
T1 sequence: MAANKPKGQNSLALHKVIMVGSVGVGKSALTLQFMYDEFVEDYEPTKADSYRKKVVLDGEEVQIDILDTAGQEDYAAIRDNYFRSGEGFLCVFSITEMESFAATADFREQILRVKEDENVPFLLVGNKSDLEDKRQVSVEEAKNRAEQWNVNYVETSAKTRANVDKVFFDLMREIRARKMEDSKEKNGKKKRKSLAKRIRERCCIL
Assay: affinity purification with mass spectrometry; proteomics of proteins interacting with WT, G23V or S28N RalA ectopically expressed in liver

binding: binds
Substance: protein phosphatase 2A subunit A alpha (PP2Aa) of liver (from UniProt Q76MZ3 1-589)
